Source: PubChem BioAssay AID743121 (NCATS, 2013)

Purpose: 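Partners whose loss is lethal together with topoisomerase I blockade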 (primary screen)
Cell system: MDA-MB-231 cells, a human breast cancer line
Reagent: single siRNA against human genes, 20 nM siRNA (0.8 pmol per well)
Time to read-out: 120 h (drug added 48 h after transfection, read 72 h later)
Conditions: camptothecin 20 nM (about EC30) for 72 h; vehicle 0.1% DMSO in parallel plates
Read-out: 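Cell viability by ATP luminescence (CellTiter-Glo) as % of non-targeting siRNA wells, and the log2 ratio of viability without drug over viability with camptothecin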
Reading the numbers: log2 vehicle/camptothecin viability: higher = stronger sensitisation to camptothecin; viability with camptothecin: higher = more viable cells
Active means: 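Active genes have an RSA gene-level p-value below 0.001, computed from the ratios of their separate siRNAs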
The deposit covers about 26,000 reagents; shown is a part drawn at random. 167 of them (0.63%) were called active. 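Calls are per gene from RSA p-values that are not deposited; an individual active-marked siRNA can sensitise only weakly.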 Not all columns of the deposit are shown.

log2 vehicle/camptothecin viability,viability with camptothecin (% of control),call,gene,PubChem SID
0.00842,48.9,inactive,HMGA1 (high mobility group AT-hook 1),SID164369315
-0.243,84.8,inactive,HMGA1 (high mobility group AT-hook 1),SID164369318
-0.197,26.1,inactive,HMGA1 (high mobility group AT-hook 1),SID164369319
-0.337,79.5,inactive,HMGA1 (high mobility group AT-hook 1),SID164736352
0.366,55,inactive,EPHB4 (EPH receptor B4),SID164363511
-0.348,62,inactive,EPHB4 (EPH receptor B4),SID164363513
-0.118,60.6,inactive,EPHB4 (EPH receptor B4),SID164363514
0.0286,92.2,inactive,EPHB4 (EPH receptor B4),SID164363516
0.161,102,inactive,SFRP1 (secreted frizzled related protein 1),SID164387663
0.0283,105,inactive,SFRP1 (secreted frizzled related protein 1),SID164387664
0.31,57.1,inactive,SFRP1 (secreted frizzled related protein 1),SID164387665
-0.194,113,inactive,SPRYD4 (SPRY domain containing 4),SID164614480
-0.478,50.2,inactive,SPRYD4 (SPRY domain containing 4),SID164614481
-0.295,69.7,inactive,SPRYD4 (SPRY domain containing 4),SID164614484
-0.243,8.4,inactive,SPRYD4 (SPRY domain containing 4),SID164614485
-0.0947,115,inactive,DFFB (DNA fragmentation factor subunit beta),SID164361445
-0.0544,115,inactive,DFFB (DNA fragmentation factor subunit beta),SID164361446
-0.412,58.6,inactive,DFFB (DNA fragmentation factor subunit beta),SID164361448
-0.0179,92.7,inactive,DFFB (DNA fragmentation factor subunit beta),SID164361449
-0.334,22,inactive,CYP2S1 (cytochrome P450 family 2 subfamily S member 1),SID164467953
-0.274,81.7,inactive,CYP2S1 (cytochrome P450 family 2 subfamily S member 1),SID164467956
-0.155,79.8,inactive,CYP2S1 (cytochrome P450 family 2 subfamily S member 1),SID164467957
-0.405,69.4,inactive,CYP2S1 (cytochrome P450 family 2 subfamily S member 1),SID164467958
-0.163,96.2,inactive,IL15 (interleukin 15),SID164371449
-0.223,106,inactive,IL15 (interleukin 15),SID164371452
0.602,50,inactive,IL15 (interleukin 15),SID164371453
-0.562,74.2,inactive,IL15 (interleukin 15),SID164371454
-0.349,118,inactive,DTX3 (deltex E3 ubiquitin ligase 3),SID164584813
-0.374,70.1,inactive,DTX3 (deltex E3 ubiquitin ligase 3),SID164584818
-0.0417,105,inactive,DTX3 (deltex E3 ubiquitin ligase 3),SID164584819
-0.0984,71.4,inactive,DTX3 (deltex E3 ubiquitin ligase 3),SID164584820
-0.0359,97.1,inactive,BSND (barttin CLCNK type accessory subunit beta),SID164395546
-0.0164,56.2,inactive,BSND (barttin CLCNK type accessory subunit beta),SID164395550
-0.412,65.3,inactive,BSND (barttin CLCNK type accessory subunit beta),SID164395551
0.169,39,inactive,BSND (barttin CLCNK type accessory subunit beta),SID164395552

A stretch taken from the entries so far, as a working copy:
log2 vehicle/camptothecin viability,viability with camptothecin (% of control),call,gene,PubChem SID
-0.194,113,inactive,SPRYD4 (SPRY domain containing 4),SID164614480
-0.478,50.2,inactive,SPRYD4 (SPRY domain containing 4),SID164614481
-0.295,69.7,inactive,SPRYD4 (SPRY domain containing 4),SID164614484
-0.243,8.4,inactive,SPRYD4 (SPRY domain containing 4),SID164614485
-0.0947,115,inactive,DFFB (DNA fragmentation factor subunit beta),SID164361445

The listing continues.
log2 vehicle/camptothecin viability,viability with camptothecin (% of control),call,gene,PubChem SID
-0.537,98.7,inactive,RNF146 (ring finger protein 146),SID164539445
0.658,48.9,inactive,RNF146 (ring finger protein 146),SID164539447
-0.119,108,inactive,RNF146 (ring finger protein 146),SID164539449
-0.217,77,inactive,RFK (riboflavin kinase),SID164484317
0.0266,97.6,inactive,RFK (riboflavin kinase),SID164484323
0.0649,88.6,inactive,RFK (riboflavin kinase),SID164484324
0.0795,71.8,inactive,RFK (riboflavin kinase),SID164484325
-0.245,62.3,inactive,RACK1 (receptor for activated C kinase 1),SID164410718
0.683,33,inactive,RACK1 (receptor for activated C kinase 1),SID164410721
-0.0862,93.2,inactive,RACK1 (receptor for activated C kinase 1),SID164410725
-0.506,47.6,inactive,CCND3 (cyclin D3),SID164356918
-0.662,79,inactive,CCND3 (cyclin D3),SID164356920
0.461,70.5,inactive,CCND3 (cyclin D3),SID164356921
-0.205,72.8,inactive,CCND3 (cyclin D3),SID164356922
-0.143,64.6,inactive,"RAB38 (RAB38, member RAS oncogene family)",SID164449457
0.132,86.6,inactive,"RAB38 (RAB38, member RAS oncogene family)",SID164449458
0.24,29.7,inactive,"RAB38 (RAB38, member RAS oncogene family)",SID164449460
-0.224,64.6,inactive,"RAB38 (RAB38, member RAS oncogene family)",SID164449462
-0.00147,73,inactive,LMO1 (LIM domain only 1),SID164374000
0.0195,84.7,inactive,LMO1 (LIM domain only 1),SID164374001
-0.22,69.3,inactive,LMO1 (LIM domain only 1),SID164374003
0.0535,92.6,inactive,CA10 (carbonic anhydrase 10 (inactive)),SID164491843
-0.0132,78.1,inactive,CA10 (carbonic anhydrase 10 (inactive)),SID164491844
-0.251,95.1,inactive,CA10 (carbonic anhydrase 10 (inactive)),SID164491847
-0.333,62.9,inactive,FLT3 (fms related receptor tyrosine kinase 3),SID164365160
-0.232,88.2,inactive,FLT3 (fms related receptor tyrosine kinase 3),SID164365163
0.546,56,inactive,FLT3 (fms related receptor tyrosine kinase 3),SID164365165
-0.242,68.9,inactive,FLT3 (fms related receptor tyrosine kinase 3),SID164365166
-0.000123,103,inactive,"TFAM (transcription factor A, mitochondrial)",SID164391465
-0.436,67.9,inactive,"TFAM (transcription factor A, mitochondrial)",SID164391466
-0.2,89.6,inactive,"TFAM (transcription factor A, mitochondrial)",SID164391468
-0.438,68.7,inactive,"TFAM (transcription factor A, mitochondrial)",SID164391471
0.0306,48,inactive,TRIM26 (tripartite motif containing 26),SID164395107
-0.327,90.7,inactive,TRIM26 (tripartite motif containing 26),SID164395108
0.465,69.3,inactive,TRIM26 (tripartite motif containing 26),SID164395111
